According to the supplement of paper PMC4604168 (melanoma cell lines):
The list shows a part of the results. Many values rest on one well or one pass, so single values are uncertain.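 Cells were imaged in 1,536-well plates, and nuclei stained with an antibody against cleaved PARP were counted against all DNA-stained nuclei to give the apoptosis fraction. Screening doses were chosen to leave most cells alive, and resting and induced cleaved-PARP levels differ strongly between cell lines.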

Columns and labels:
Assay in all cases: cleaved PARP positive nuclei fraction relative to DMSO control; melanoma cells; higher = more apoptosis
Details in all cases: library dose: low library concentration; 72 h
[1] = test system: MZ2-MEL
[2] = test system: MeWo
[3] = test system: RPMI7951
[4] = test system: RVH-421
[5] = test system: SkMel28
[6] = test system: SkMel2
[7] = test system: SkMel30
[8] = test system: UACC62

SMILES	cleaved PARP positive nuclei fraction [1]	cleaved PARP positive nuclei fraction [2]	cleaved PARP positive nuclei fraction [3]	cleaved PARP positive nuclei fraction [4]	cleaved PARP positive nuclei fraction [5]	cleaved PARP positive nuclei fraction [6]	cleaved PARP positive nuclei fraction [7]	cleaved PARP positive nuclei fraction [8]
N.N.[Cl][Pt][Cl] [cisplatin] + CN1CCN(c2ccc3nc(-c4c(N)c5c(F)cccc5[nH]c4=O)[nH]c3c2)CC1 [Dovitinib] (first compound 1.6 µM, partner dose 0.1 µM)	149%	370%	114%	114%	38.8%	199%	132%	157%
Cn1cc(C2=C(c3cn(C4CCN(Cc5ccccn5)CC4)c4ccccc34)C(=O)NC2=O)c2ccccc21 [Enzastaurin] + CS(=O)(=O)CCNCc1ccc(-c2ccc3ncnc(Nc4ccc(OCc5cccc(F)c5)c(Cl)c4)c3c2)o1 [lapatinib] (first compound 0.8 µM, partner dose 0.8 µM)	72.6%	69.9%	254%	122%	43.7%	244%	26.4%	73.4%
Cc1cc(Nc2cc(N3CCN(C)CC3)nc(/C=C/c3ccccc3)n2)n[nH]1 + N.N.[Cl][Pt][Cl] [cisplatin] (first compound 0.04 µM, partner dose 1.6 µM)	75.4%	454%	76.2%	78.3%	84.6%	84.2%	78.3%	379%
CN(c1ncccc1CNc1nc(Nc2ccc3c(c2)CC(=O)N3)ncc1C(F)(F)F)S(C)(=O)=O + C[As](C)SC[C@H](NC(=O)CC[C@H](N)C(=O)O)C(=O)NCC(=O)O [Darinaparsin] (first compound 0.08 µM, partner dose 0.4 µM)	195%	109%	127%	138%	87.1%	193%	110%	199%
Cc1cn(-c2cc(NC(=O)c3ccc(C)c(Nc4nccc(-c5cccnc5)n4)c3)cc(C(F)(F)F)c2)cn1 [nilotinib] + Cn1cc(C2=C(c3cn(C4CCN(Cc5ccccn5)CC4)c4ccccc34)C(=O)NC2=O)c2ccccc21 [Enzastaurin] (first compound 0.2 µM, partner dose 0.8 µM)	95%	21.6%	232%	66.6%	72.4%	135%	76.2%	96.2%
CC(=O)O[C@@]12CO[C@@H]1C[C@H](O)[C@@]1(C)C(=O)[C@H](O)C3=C(C)[C@@H](OC(=O)[C@H](O)[C@@H](NC(=O)OC(C)(C)C)c4ccccc4)C[C@@](O)([C@@H](OC(=O)c4ccccc4)[C@H]21)C3(C)C [Docetaxel] + N.N.[Cl][Pt][Cl] [cisplatin] (first compound 0.0001 µM, partner dose 1.6 µM)	503%	888%	201%	143%	134%	454%	363%	677%
NC1(c2ccc(-c3nc4ccn5c(=O)[nH]nc5c4cc3-c3ccccc3)cc2)CCC1 + C[As](C)SC[C@H](NC(=O)CC[C@H](N)C(=O)O)C(=O)NCC(=O)O [Darinaparsin] (first compound 0.4 µM, partner dose 0.4 µM)	79.7%	49.6%	54%	68.5%	200%	110%	75.9%	161%
Cn1cc(C2=C(c3cn(C4CCN(Cc5ccccn5)CC4)c4ccccc34)C(=O)NC2=O)c2ccccc21 [Enzastaurin] + CC(=O)c1c(C)c2cnc(Nc3ccc(N4CCNCC4)cn3)nc2n(C2CCCC2)c1=O [palbociclib] (first compound 0.8 µM, partner dose 0.04 µM)	42.3%	63.1%	141%	78.6%	111%	108%	161%	162%
Cn1cc(C2=C(c3cn(C4CCN(Cc5ccccn5)CC4)c4ccccc34)C(=O)NC2=O)c2ccccc21 [Enzastaurin] + Cn1sc(=O)n(Cc2ccccc2)c1=O [TDZD-8] (first compound 0.8 µM, partner dose 0.4 µM)	91.5%	120%	95.8%	38.3%	68%	177%	59.2%	270%
Cn1cc(C2=C(c3cn(C4CCN(Cc5ccccn5)CC4)c4ccccc34)C(=O)NC2=O)c2ccccc21 [Enzastaurin] + C[C@]1(c2nc3c(C(N)=O)cccc3[nH]2)CCCN1 [Veliparib] (first compound 0.8 µM, partner dose 1.4 µM)	54.2%	81.6%	83.5%	112%	45.9%	91.8%	114%	46.1%
C[C@@H](Oc1cc(-c2cnn(C3CCNCC3)c2)cnc1N)c1c(Cl)ccc(F)c1Cl [Crizotinib] + C[As](C)SC[C@H](NC(=O)CC[C@H](N)C(=O)O)C(=O)NCC(=O)O [Darinaparsin] (first compound 0.2 µM, partner dose 0.4 µM)	35.6%	29.5%	66.5%	95.1%	75.2%	87.5%	22.7%	53.3%
Cn1cc(C2=C(c3cn(C4CCN(Cc5ccccn5)CC4)c4ccccc34)C(=O)NC2=O)c2ccccc21 [Enzastaurin] + COc1ccc(C2=N[C@@H](c3ccc(Cl)cc3)[C@@H](c3ccc(Cl)cc3)N2C(=O)N2CCNC(=O)C2)c(OC(C)C)c1 [Nutlin-3] (first compound 0.8 µM, partner dose 0.1 µM)	152%	48.8%	85.6%	90.1%	37.9%	60.7%	38.9%	65.1%
Cn1cc(C2=C(c3cn(C4CCN(Cc5ccccn5)CC4)c4ccccc34)C(=O)NC2=O)c2ccccc21 [Enzastaurin] + Cn1c(=O)n(-c2ccc(C(C)(C)C#N)cc2)c2c3cc(-c4cnc5ccccc5c4)ccc3ncc21 [NVP-BEZ235] (first compound 0.8 µM, partner dose 0.004 µM)	83.4%	23.3%	72.3%	31.2%	67.2%	56.3%	120%	73.8%

3 entries from above, bar-delimited:
SMILES | cleaved PARP positive nuclei fraction [1] | cleaved PARP positive nuclei fraction [2] | cleaved PARP positive nuclei fraction [3] | cleaved PARP positive nuclei fraction [4] | cleaved PARP positive nuclei fraction [5] | cleaved PARP positive nuclei fraction [6] | cleaved PARP positive nuclei fraction [7] | cleaved PARP positive nuclei fraction [8]
Cn1cc(C2=C(c3cn(C4CCN(Cc5ccccn5)CC4)c4ccccc34)C(=O)NC2=O)c2ccccc21 [Enzastaurin] + CC(=O)c1c(C)c2cnc(Nc3ccc(N4CCNCC4)cn3)nc2n(C2CCCC2)c1=O [palbociclib] (first compound 0.8 µM, partner dose 0.04 µM) | 42.3% | 63.1% | 141% | 78.6% | 111% | 108% | 161% | 162%
Cn1cc(C2=C(c3cn(C4CCN(Cc5ccccn5)CC4)c4ccccc34)C(=O)NC2=O)c2ccccc21 [Enzastaurin] + Cn1sc(=O)n(Cc2ccccc2)c1=O [TDZD-8] (first compound 0.8 µM, partner dose 0.4 µM) | 91.5% | 120% | 95.8% | 38.3% | 68% | 177% | 59.2% | 270%
Cn1cc(C2=C(c3cn(C4CCN(Cc5ccccn5)CC4)c4ccccc34)C(=O)NC2=O)c2ccccc21 [Enzastaurin] + C[C@]1(c2nc3c(C(N)=O)cccc3[nH]2)CCCN1 [Veliparib] (first compound 0.8 µM, partner dose 1.4 µM) | 54.2% | 81.6% | 83.5% | 112% | 45.9% | 91.8% | 114% | 46.1%
